# Test results reported in US6589325B1, “Phthalocyanine compounds, water-base ink compositions and colored products” (Nippon Kayaku Kabushiki Kaisha, priority 1999, dated 2003).
# Experiment: color rendering property, visual observation under tungsten lamp vs standard light source
# Set-up: key: ∘: a small deviation in hue; Δ: a medium deviation in hue; ×: a large deviation in hue
compound,measurement,setting,value
Nc1ccc2cc(S(=O)(=O)O)c(N=Nc3ccc(N=Nc4cc(C(=O)O)cc(C(=O)O)c4)c4ccccc34)c(O)c2c1 [Comparative Example 2],Color Rendering property,plain paper,Δ
same,Color Rendering property,special paper A,Δ
